From patent US20240277845A1
These are yes or no findings as the source states them, for the method shown. A result given as binding can be weak or reduced; the word gives no strength.

Protein sequences, listed by entry. Tags and fused reporters are not part of them. Lines headed by an entry give the natural chain unless they say otherwise; changes in a name come on top. Chains listed by the source or under a name are the forms on record and can include a tag or linker.
Fc-wtNKG2D (P26718, form named): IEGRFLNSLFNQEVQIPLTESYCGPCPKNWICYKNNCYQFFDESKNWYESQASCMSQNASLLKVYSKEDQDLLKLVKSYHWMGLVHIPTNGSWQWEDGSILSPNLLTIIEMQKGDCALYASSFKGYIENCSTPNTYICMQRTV
UniProt Q9BZM6: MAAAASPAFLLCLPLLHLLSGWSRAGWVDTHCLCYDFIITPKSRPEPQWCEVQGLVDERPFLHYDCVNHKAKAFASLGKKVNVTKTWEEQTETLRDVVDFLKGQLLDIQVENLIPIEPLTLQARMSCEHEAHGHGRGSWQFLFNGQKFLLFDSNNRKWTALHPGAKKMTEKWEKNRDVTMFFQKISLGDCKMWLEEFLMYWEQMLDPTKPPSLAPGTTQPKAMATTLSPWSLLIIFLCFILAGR

Key:
Fc-wtNKG2D (human) [1] = biological target: Fc-wtNKG2D (human) (UniProt P26718); assay: Octet BLI, response against concentration; panel 'wtNKG2D', x axis printed as 'nM Fc-NKG2D.wt' (legend: monomeric ligands on Fc-wtNKG2D)
Fc-wtNKG2D (human) [2] = biological target: Fc-wtNKG2D (human) (UniProt P26718); assay: Octet BLI; Fc-wtNKG2D captured on AHC tips, dilution series of His-tagged monomeric ligand

binding (Fc-wtNKG2D (human) [1]): binds
binding (Fc-wtNKG2D (human) [2]): binds
Substance: His-tagged monomeric ULBP1 A1-A2 domain (from UniProt Q9BZM6) (ligand)
